Library screen at single concentrations

Amino acid sequences for entries named in this document (tags omitted). Residues count along the entry.
UniProt Q8IDJ8, 1-583: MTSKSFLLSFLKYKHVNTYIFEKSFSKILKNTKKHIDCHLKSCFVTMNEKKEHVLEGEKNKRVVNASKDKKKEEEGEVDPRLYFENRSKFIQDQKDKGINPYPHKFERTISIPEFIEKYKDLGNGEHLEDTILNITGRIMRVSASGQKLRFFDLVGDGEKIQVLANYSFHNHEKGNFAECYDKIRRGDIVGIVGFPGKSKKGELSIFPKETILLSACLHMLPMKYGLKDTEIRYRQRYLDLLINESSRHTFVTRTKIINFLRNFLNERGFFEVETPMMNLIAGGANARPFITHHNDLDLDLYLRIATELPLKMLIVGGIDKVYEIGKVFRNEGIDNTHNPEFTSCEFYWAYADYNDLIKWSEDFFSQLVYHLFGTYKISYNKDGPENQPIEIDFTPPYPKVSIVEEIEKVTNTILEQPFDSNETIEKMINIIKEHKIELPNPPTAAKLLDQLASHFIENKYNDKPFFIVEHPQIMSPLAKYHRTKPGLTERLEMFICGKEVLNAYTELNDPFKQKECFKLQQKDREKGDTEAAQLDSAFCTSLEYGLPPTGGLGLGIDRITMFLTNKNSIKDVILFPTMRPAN
UniProt P9WFT3, whole entry: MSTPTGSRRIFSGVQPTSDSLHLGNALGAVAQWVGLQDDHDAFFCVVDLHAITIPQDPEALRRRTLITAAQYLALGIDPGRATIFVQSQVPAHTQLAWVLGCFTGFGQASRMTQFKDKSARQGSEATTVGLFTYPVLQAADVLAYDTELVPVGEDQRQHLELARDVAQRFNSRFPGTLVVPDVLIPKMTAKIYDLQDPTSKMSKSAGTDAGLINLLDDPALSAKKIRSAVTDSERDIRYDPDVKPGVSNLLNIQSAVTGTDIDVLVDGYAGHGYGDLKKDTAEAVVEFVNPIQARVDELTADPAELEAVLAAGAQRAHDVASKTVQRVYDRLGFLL

Data taken from ChEMBL document CHEMBL3988442, “University of Dundee, Small-Polar-MMV Screening Library” (2021).

PfKRS1: 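Enzyme assay of the cytosolic lysyl-tRNA synthetase in 384-well plates, read by luminescence. Target: Lysine-tRNA ligase, Plasmodium falciparum 3D7 (UniProt Q8IDJ8). Tested at 30 µM. Direction is inferred from only a few compounds that gave an IC50; most scored high, so higher reads as stronger inhibition. Of about 69,000 compounds tested this way, about 49 (0.071%) reached 50% or more in at least one test.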
MtTrpRS: 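Tryptophan-tRNA ligase, Mycobacterium tuberculosis (UniProt P9WFT3). Enzyme assay of tryptophanyl-tRNA synthetase; the read-out is not stated. Compounds at 10 µM. Direction is not recorded; retested compounds ran higher, which suggests that high means inhibition. About 65,000 compounds were tested under these conditions; 0.098% (about 64) showed 50% or more at least once.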
Leishmania in macrophages: 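Cell assay of Leishmania donovani living inside macrophages; the read-out is not stated. Tested at 30 µM. Higher reads as stronger inhibition (inferred: compounds with an IC50 in retests scored well above the rest). About 69,000 compounds were tested under these conditions; 1.5% (about 1,000) showed 50% or more at least once.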

Values are the deposited “Percent Effect”, in %.
The controls that fix the scale are not given in the record; negative values are as filed.
Compounds were drawn at random from those tested, without regard to their results.
A dash means the value is not listed here; it may have been measured.

Compound,PfKRS1,MtTrpRS,Leishmania in macrophages
COc1ccc(C(NCc2ccc(C#N)cc2)C2CC2)cc1.Cl (stereo not shown),-,-,26.65
COc1cccc(S(=O)(=O)CCN2CCCC2c2ccc[nH]2)c1 (stereo not shown),0.8416,-1.002,25.95
Cc1cc(NC(=O)CN2CCCC2c2noc(C(C)C)n2)n(C)n1 (stereo not shown),3.936,-3.125,-0.3716
Cc1ccc2c(c1)CCC21CCN(C(=O)CN(C)C)CC1,4.884,-0.1627,-
COCCN(C)C(=O)Nc1ccc2c(ccn2CC(=O)N(C)C)c1,3.672,-0.3298,-13.21
CS(=O)(=O)N1CCCC12CCN(Cc1nccs1)C2 (stereo not shown),2.901,-2.326,-
O=C(CCc1ccsc1)NCc1ccnc(OC2CCOCC2)c1,4.038,0.1037,-11.68
O=C(c1cc(C2CC2)nc2onc(-c3ccccc3)c12)N1CC[C@H](O)C1,-0.6647,1.38,9.916
CC(C)(C)NC(=O)[C@@H]1Cc2ccccc2CN1Cc1cccs1,-4.855,6.278,20.28
O=C(O)C(F)(F)F.[H][C@@]12CCN(CC3CCOCC3)[C@@]1([H])CCN2C(=O)c1ccc(C#N)cc1,-,-,9.058
COc1ccc(CN2CCN(CCn3ccnc3)CC2)cc1F,3.352,4.617,-6.614
CN1C(=O)CCCC12CCCN(Cc1nccs1)C2 (stereo not shown),-2.624,8.668,-
COCc1cc(CC2(NCc3ccccc3Cl)COC2)no1,7.112,-3.87,12.79
Cc1cc(C(=O)Nc2ccnc(OC3CCOC3)c2)c(C)o1 (stereo not shown),8.643,-1.323,9.112
CCc1nc(CN2CCN(C(=O)COCc3ccccc3)CC2)no1,0.3223,5.532,-3.635
O=C(c1n[nH]c2c1CCC2)N1CCCC1c1nc(-c2ccccc2)no1 (stereo not shown),0.9666,12.83,-17.88
Cc1nc(-c2ccsc2)ccc1C(=O)NC(C)CN1CCOCC1 (stereo not shown),-1.827,0.3139,7.188
CN(Cc1cc(-c2ccccc2)no1)CC1CCCN1c1cccnn1 (stereo not shown),-1.157,2.638,9.44
Nc1ncccc1CN1CCOCC1CC(=O)NCc1ccccn1 (stereo not shown),-2.974,25.67,-12.54
CC(NC(=O)NCCCn1cccn1)c1ccc2c(c1)OCCCO2 (stereo not shown),0.4251,13.06,-9.615
O=C1NCCCc2[nH]c(C3CCCN(C(=O)C4CC4)C3)nc21 (stereo not shown),6.601,6.119,0.6923
CCC(=O)N1CCN(C(=O)CCn2cc(Cl)cn2)[C@H]2CS(=O)(=O)C[C@H]21,8.828,0.6441,-
Clc1cccnc1N1CCC(C2CCN(Cc3cccnc3)CC2)C1 (stereo not shown),-4.025,7.018,-17.23
O=C(O)Cc1cnc(-c2c(Cl)cccc2Cl)s1,-0.6635,0.1942,39.96
Cc1ccccc1CN1CCC2(COCc3cnc(N(C)C)nc32)C1.O=C(O)C(F)(F)F (stereo not shown),-,-,6.89
CCN(CC1CCCO1)C(=O)Nc1ccc(F)cc1OC (stereo not shown),8.023,3.541,13.75
Fc1ccc(C2CN(c3ncnc4nc[nH]c34)CCO2)cc1 (stereo not shown),2.242,-1.356,-6.94
O=C(c1ccccn1)N(CCO)Cc1cc(Br)ccc1F,0.1934,-5.235,-3.135
O=C1NCc2ccccc2CC12CCCN(Cc1ccsc1)C2 (stereo not shown),3.711,-7.174,13.74
Cc1noc(C)c1Cc1nc(N(C)C)no1,0.5319,-0.154,-10.34
Cc1ccoc1C(=O)N1CCc2ccc(=O)n(CCN(C)C)c2CC1,-1.111,-8.439,-
Cn1c(C(=O)N2CCC(C(=O)N3CCCC3)CC2)c(Cl)c2ccccc21,2.647,-1.776,46.06
CC(COc1ccc(F)cc1F)NC(=O)NCCN1CCOCC1 (stereo not shown),8.88,1.165,38.28
O=C(O)C(F)(F)F.[H][C@@]12CN(Cc3c(C)noc3C)C[C@]1([H])CC(F)(F)C2,-,-,4.682
O=C(N1CCCO1)[C@@]12CCO[C@@H]1CCN(Cc1ccsc1)C2,0.802,-0.6206,-

Repeated from the top, 2 entries:

Compound,PfKRS1,MtTrpRS,Leishmania in macrophages
COc1ccc(C(NCc2ccc(C#N)cc2)C2CC2)cc1.Cl (stereo not shown),-,-,26.65
COc1cccc(S(=O)(=O)CCN2CCCC2c2ccc[nH]2)c1 (stereo not shown),0.8416,-1.002,25.95